Test system: Male Sprague-Dawley rats
Conditions: scopolamine s.c. immediately after the sampling phase; three-hour delay

`CN1[C@@H]2C[C@@H](OC(=O)[C@H](CO)c3ccccc3)C[C@H]1[C@@H]1O[C@@H]12` [Scopolamine, scopolamine] was tested, and the “retention (errors in retention session)” value was “disrupted retention after a three-hour delay in a dose-related fashion”.
